Tests used:
Type in all cases: binding, rabbit
AAMU-Ab = assay: Competitive antigen ELISA, cross-reactivity of AAMU-Ab
Protocol: (§1) Four mature females New Zealand white rabbits (Charles River Canada, St-Constant, Que., Canada) were used for antibody production. The protocol employed in this study was approved by the McGill University Animal Care Committee in accordance with the guidelines from the Canadian Council on Animal Care. An isotonic saline solution (0.6 mL) containing […] of BSA conjugated antigen was emulsified with 0.6 mL of a complete Freund's adjuvant. 0.5 mL of the emulsion (100 mg of antigen) was injected per rabbit intramuscularly or subcutaneously. Rabbits were subsequently boosted at intervals of three weeks with 50 mg of antigen emulsified in incomplete Freund's adjuvant. Blood was collected by venipuncture of the ear 10-14 days after boosting. Antisera were stores at 4° C. in the presence of 0.01% sodium azide. Buffers and water without additives were filtered through millipore filters and kept for 1 week. BSA, antibodies, Tween™ 20 and horse radish peroxidase conjugates were added to these buffers and water just prior to use. Urine samples were usually collected 4 hours after drinking a cup of coffee (instant or brewed with approximately 100 mg of caffeine per cup) and stored at -80° C. They were diluted 10 times with sodium phosphate buffer (620 mosm, pH 7.50) and were subsequently diluted with water to give concentrations of AAMU and 1X no higher than 3×10^-6 M in the ELISA. […]

1X-Ab [1] = assay: Effect of the ratio 1U:1X on the determination of 1X concentration by ELISA; details: for apparent [1X]: fixed 1X concentration 3 × 10^-6 M; for apparent increase of 1X concentration: fixed 1X concentration 3×10^-6 M
1X-Ab [2] = assay: Competitive antigen ELISA, cross-reactivity of 1X-Ab
Protocol: as §1

## CC(=O)Nc1c(N)[nH]c(=O)n(C)c1=O
AAMU-Ab
  practical limit of detection: 200 nM

## Cn1c(=O)[nH]c2nc[nH]c2c1=O [1-Methyl Xanthine (1X), 1-Methyl Xanthine]
1X-Ab [1]; 1U:1X ratio 0.0
  apparent [1X]: 3.00 × 10^6 (M)
1X-Ab [1]; 1U:1X ratio 0.50
  apparent [1X]: 2.75 × 10^6 (M)
1X-Ab [1]; 1U:1X ratio 1.00
  apparent [1X]: 3.25 × 10^6 (M)
1X-Ab [1]; 1U:1X ratio 1.50
  apparent [1X]: 3.25 × 10^6 (M)
1X-Ab [1]; 1U:1X ratio 2.00
  apparent [1X]: 3.60 × 10^6 (M)
1X-Ab [1]; 1U:1X ratio 2.50
  apparent [1X]: 3.65 × 10^6 (M)
1X-Ab [1]; 1U:1X ratio 2.5
  apparent increase of 1X concentration: 22%
1X-Ab [1]; 1U:1X ratio 3.00
  apparent [1X]: 3.95 × 10^6 (M)
1X-Ab [1]; 1U:1X ratio 3.0
  apparent increase of 1X concentration: 32%
1X-Ab [1]; 1U:1X ratio 4.00
  apparent [1X]: 4.20 × 10^6 (M)
1X-Ab [1]; 1U:1X ratio 5.00
  apparent [1X]: 4.30 × 10^6 (M)
1X-Ab [1]; 1U:1X ratio 6.00
  apparent [1X]: 4.50 × 10^6 (M)
1X-Ab [1]; 1U:1X ratio 8.00
  apparent [1X]: 4.30 × 10^6 (M)
1X-Ab [2]
  practical limit of detection: 2 µM

— US5830672A, “Elisa kit for the rapid determination of N-acetyltransferase (NAT2) phenotypes” (priority 1996, dated 1998)
